Assay results as given in the supplement of paper PMC12823440, “Inhibitors supercharge kinase turnover through native proteolytic circuits” (Nature, 2025).
Counter-ions that a name gives are not always drawn. The list shows a part of the results. Hit calls seldom repeat between salt and free forms of one compound.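 Kinases were expressed as nanoluciferase fusions in K562 cells and luminescence was read every 4 h between 2 and 18 h as percent of control, DMSO set to 100% and a positive control to 0%. A time point counts as decreased when the signal drops significantly (2 sigma). The hit call is the authors' own, does not follow from the count of time points alone, and its rule is not shown.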

Amino acid sequences for entries named in this document (tags omitted).
UniProt Q00535, whole entry, looked up: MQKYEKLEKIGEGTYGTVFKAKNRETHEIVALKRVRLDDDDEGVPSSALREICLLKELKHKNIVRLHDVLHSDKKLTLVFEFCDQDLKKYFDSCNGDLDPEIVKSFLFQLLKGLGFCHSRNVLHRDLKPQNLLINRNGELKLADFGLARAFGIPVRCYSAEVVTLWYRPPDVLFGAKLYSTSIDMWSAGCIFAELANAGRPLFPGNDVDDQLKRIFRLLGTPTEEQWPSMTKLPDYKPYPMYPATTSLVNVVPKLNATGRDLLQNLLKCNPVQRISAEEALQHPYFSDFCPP

target: CDK5 (UniProt Q00535); assay: number of time points (of 5) at which kinase-Nluc abundance scored as decreased, DMSO-normalised (count); higher = more persistent destabilization; details: K562; 2-18 h

Row | SMILES | number of time points
1 | O=C1NC(=O)C(c2cn(-c3ccccc3)nc2-c2ccc(F)cc2)N1 (centres undefined) (10 µM) | 0
2 | O=[N+]([O-])c1ccc(Sc2cccc[n+]2[O-])c2nonc12 (2.5 µM) | 0
3 | COc1nc(-c2ccnc(NC(=O)C3CC3)c2)sc1C(N)=O [GSK-3β inhibitor 2] (10 µM) | 0
4 | CCN1/C(=C/C(C)=O)Sc2ccc(OC)cc21 (10 µM) | 0
5 | Nc1cccc(S(=O)(=O)N2CCCN(S(=O)(=O)c3ccc4c(c3)OCCO4)CC2)c1 (10 µM) | 0
6 | Nc1ncc(-c2ccc(C(=O)N3CCNCC3)cc2)nc1-c1ccc(C(F)(F)F)cc1 (10 µM) | 0
7 | CC[C@H](Nc1ncnc2[nH]cnc12)c1oc2ccccc2c(=O)c1-c1cccc(F)c1 [Tenalisib] (10 µM) | 0
8 | CC(C)(O)[C@@H]1CC[C@](C)([C@H]2[C@@H](O)C[C@@]3(C)[C@@H]4C[C@H](O[C@@H]5O[C@H](CO)[C@@H](O)[C@H](O)[C@H]5O)[C@H]5C(C)(C)[C@@H](O[C@@H]6OC[C@@H](O)[C@H](O)[C@H]6O[C@@H]6O[C@H](CO)[C@@H](O)[C@H](O)[C@H]6O)CC[C@@]56C[C@@]46CC[C@]23C)O1 [Astragaloside VI] (10 µM) | 0
9 | CC(=O)Nc1nc2ccc(-c3cnc(C)c(NC(=O)OC4CCCCC4)c3)cc2s1 (10 µM) | 0
10 | COc1ccccc1/C=C1\C(=O)Nc2ccccc21 (10 µM) | 0
11 | CC1(N)CCN(c2cnc3c(-c4cccc(Cl)c4Cl)[nH]nc3n2)CC1 (2.5 µM) | 0
12 | CC(C)C[C@H](NC(=O)[C@H](CCCCN)NC(=O)[C@H](CO)NC(=O)[C@@H](N)CC(C)C)C(N)=O [LSKL, Inhibitor of Thrombospondin (TSP-1) (TFA)] (10 µM) | 0
13 | CN1CC[C@H](c2c(O)cc(O)c3c(=O)cc(-c4ccc(C(F)(F)F)cc4Cl)oc23)[C@H]1CO [(2S,3R)-Voruciclib (hydrochloride)] (2.5 µM) | 0
14 | C[C@H]1[C@H](OC(=O)CCC(=O)O)O[C@@H]2O[C@@]3(C)CC[C@H]4[C@H](C)CC[C@@H]1[C@@]24OO3 [Artesunate] (2.5 µM) | 0
15 | c1ccc(-c2nn3c(c2-c2ccnc4cc(OCCN5CCOCC5)ccc24)CCC3)nc1 (10 µM) | 0
16 | COc1cc(N2CCC(N(C)C)CC2)ccc1Nc1ncc(Cl)c(Nc2ccccc2P(C)(C)=O)n1 (2.5 µM) | 0
17 | Cc1ccc(-c2ncn(-c3ccc(Nc4nccc(-c5cccc(N6CCOCC6)c5)n4)cc3)n2)cn1 (10 µM) | 0
18 | CC[C@@H]1[C@H](F)C(=O)N[C@@H]1COc1nccc2cc(C(N)=O)c(OC)cc12 (10 µM) | 0
19 | O=C1NC(=O)/C(=C/c2ccc(-c3ccc(F)cc3O)o2)S1 (10 µM) | 0
20 | Cc1cc(Nc2cc(CN3CCOCC3)c3nc(C)c(Cc4ccc(Cl)cc4F)n3n2)n[nH]1 [Gandotinib] (2.5 µM) | 0

Row | SMILES | number of time points
21 | CN(C)C(=O)c1ccc(S(=O)(=O)c2ccc(NC(=O)[C@@](C)(O)C(F)(F)F)c(Cl)c2)cc1 (10 µM) | 0
22 | CCc1cccc(CC)c1NC(=O)c1nn(C)c2c1CCc1cnc(Nc3ccc(C(=O)NC4CCN(C)CC4)cc3OC(F)(F)F)nc1-2 (2 µM) | 0
23 | O=C(Nc1ccc(Cl)cc1)C1CCCN(C(=O)c2cccc(-c3ccco3)c2)C1 (centres undefined) (2.5 µM) | 0
24 | CN(C)Cc1cccc(N=C(c2ccccc2)c2c(O)[nH]c3cc(C(=O)N(C)C)ccc23)c1 (10 µM) | 0
25 | OCCN(CCO)c1ccc(C(c2ccc(Cl)cc2)c2ccc(N(CCO)CCO)cc2)cc1 (10 µM) | 0
26 | CCOc1ccccc1C=C1C(=O)Nc2ccccc21 (10 µM) | 0
27 | COc1ncc(Nc2ncc([C@@H](C)N3CCN(S(C)(=O)=O)CC3)cc2-c2nc(C)nc(N)n2)cc1F (10 µM) | 0
28 | O=C(CO)N1CCC(c2n[nH]c(-c3ccc(Cl)cc3)c2-c2ccncn2)CC1 (10 µM) | 0
29 | Cn1ncc(Cl)c1-c1cc(C(=O)N[C@H](CN)Cc2ccc(F)c(F)c2)sc1Cl (10 µM) | 0
30 | O=c1ccc2ccc(O)c(O)c2o1 [Daphnetin] (10 µM) | 0
31 | O=C(Nc1ccc(Cl)c(Cl)c1)Nc1ccc2nnsc2c1 (10 µM) | 0
32 | O=C(O)c1cc(O)c2c(c1)[C@@H]([C@H]1c3cc(C(=O)O)cc(O)c3C(=O)c3c(O[C@@H]4O[C@H](CO)[C@@H](O)[C@H](O)[C@H]4O)cccc31)c1cccc(O[C@@H]3O[C@H](CO)[C@@H](O)[C@H](O)[C@H]3O)c1C2=O [Sennoside B] (2.5 µM) | 0
33 | O=c1nc(N2CCOCC2)oc2c(-c3cccc4c3sc3ccccc34)cccc12 (10 µM) | 0
34 | O=C(Nc1cccc(-c2nncn2C2CC2)c1)c1cc(-n2cnc(C3CC3)c2)ccn1 (10 µM) | 0
35 | CSc1ccc(CN2CCCC(Nc3ccc4[nH]ncc4c3)C2)cc1 (centres undefined) [Rho-Kinase-IN-1] (10 µM) | 0
36 | Oc1ccccc1C(=S)N1CCCC1 (10 µM) | 0
37 | COC(=O)N[C@@H](C)CNc1nccc(-c2cn(C(C)C)nc2-c2cc(Cl)cc(NS(C)(=O)=O)c2F)n1 [Encorafenib] (10 µM) | 0
38 | C=CS(=O)(=O)c1ccc(Nc2nc(OCC3CCCCC3)c3[nH]cnc3n2)cc1 (2.5 µM) | 0
39 | O=c1[nH]ccc2cc(OC3CCNCC3)ccc12 (10 µM) | 0

Structures above that have an NH in an aromatic ring (eight):
Row | SMILES | number of time points
7 | CC[C@H](Nc1ncnc2[nH]cnc12)c1oc2ccccc2c(=O)c1-c1cccc(F)c1 [Tenalisib] (10 µM) | 0
11 | CC1(N)CCN(c2cnc3c(-c4cccc(Cl)c4Cl)[nH]nc3n2)CC1 (2.5 µM) | 0
20 | Cc1cc(Nc2cc(CN3CCOCC3)c3nc(C)c(Cc4ccc(Cl)cc4F)n3n2)n[nH]1 [Gandotinib] (2.5 µM) | 0
24 | CN(C)Cc1cccc(N=C(c2ccccc2)c2c(O)[nH]c3cc(C(=O)N(C)C)ccc23)c1 (10 µM) | 0
28 | O=C(CO)N1CCC(c2n[nH]c(-c3ccc(Cl)cc3)c2-c2ccncn2)CC1 (10 µM) | 0
35 | CSc1ccc(CN2CCCC(Nc3ccc4[nH]ncc4c3)C2)cc1 (centres undefined) [Rho-Kinase-IN-1] (10 µM) | 0
38 | C=CS(=O)(=O)c1ccc(Nc2nc(OCC3CCCCC3)c3[nH]cnc3n2)cc1 (2.5 µM) | 0
39 | O=c1[nH]ccc2cc(OC3CCNCC3)ccc12 (10 µM) | 0
